# Test results taken from paper PMC11277477.
# T1: GST-Linker recombinant protein (E. histolytica)
# T1 sequence: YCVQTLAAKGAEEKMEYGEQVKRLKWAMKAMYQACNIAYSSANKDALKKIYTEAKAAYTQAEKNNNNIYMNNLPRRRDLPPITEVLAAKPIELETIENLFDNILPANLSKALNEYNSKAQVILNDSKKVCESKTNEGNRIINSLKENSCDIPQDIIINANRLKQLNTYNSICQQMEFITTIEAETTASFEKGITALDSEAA
# Target: GST-EhADH recombinant protein (E. histolytica)
# Test: affinity purification with mass spectrometry; GST-tagged bait (or GST control) bound to glutathione-Sepharose (200 μg) incubated with total trophozoite lysate (2 mg), 4 h, 4 °C; SDS-PAGE, silver stain, bands cut, nano UPLC-QToF; hits with reliability above 95%; only the target purified
row,Binder,binding
1,"Actin (EHI_008780) (protein, UniProt C4M0P2 1-763) MNFFKKQFNGNEFMVRCQCALRRISAQQKKYQTHSKTFKKQIIELLQNNERDKAFDKCTLLVQEDYKNEALTELIDVIDELMKNSEIIGTQRICPLELKSACGAILYASPYFPDHTEMMELRNMLIDKFGKTFPEECVNSKVISPKLLSRLSSKPVDSDVVNYYLDSIAKENNLITEENKLPEENPNEMLPADASKCELSRLLDGKQNNKYTFGVLTKNVIGKIKKGGDKVEAYISGPNNTKIIGEVTDLHDGTYDIVFVPPYAGNYLIAVYVNDKQIEQIGKLHILEANSLDLNKCIIEGNGIKGGYVNEKQNFTIIAKDSSGQTINHGGEPFAAYIAGPNDVKIIGDITDLKNGQYDVSYVPPIKGNYAIAVYHNTTLVQSVFNFSIEERSTQQQFPTIQQHIQPQITKSFIPVQGKPGEHFIIDIGSCSIKSGFESVGTPSIVTPTVVGKNLHQTSGFVEQNLYVGDEAIDKRGILSLEYPMQKEPIDYNSLKSVMKHSVEVAQGHPTVVITNGLTPLQMKINTSEILFNEGVQSIRFVDEAQAISRLYNKQNCVIVNIGGMMSWVIPVINGIVYNNISQKLPIAGVKCTEILMALLSKEGITLGSTSSEKEIARQIKEATGYIQVSHNSLIQPINYSLPDGTSLTIGNSRVQCFEPLFNPQLCAMNCSGISQMIATVLRNINGCTNEIILVGGGSLIKGLKERIENDIQQLLNFKINVIAEDNRKFASWLGANLLDKENIGKIITLDTWKQEGALCLDD",binds
2,"EhGrainin 1 (protein, UniProt C4MAF9 1-215) MSLFAIQAAADAWVAQHITAAYQADPLIQREWWYPLATSISGTEFKELQDFFVKTDKDKSGSLELDELKKAKFPGGIKLDENACRHLMRIFDVDLSGSIGFYEYLALMKFVKLATAVFTKFDKDKSGNLDEQEIYAALPELGFDLNMKACKILIQLCGKGLLTKKIQISQFISCAAYLGQIRTIYQHGFKQAQGDFNRATFSKFMNLTLMLMDDA",binds
3,"EF-hand calcium-binding domain containing protein (protein, UniProt C4LVG7 1-264) MYGYPVGGMNLSGYPMNGICPIQPMGSVQVGVPVITNTPGMVTSVPVSALCLWNLVPSSNSWMNSRVQCQIMLDPMLRNNWWWNLVQSVSVTQFNSVYMWFLSVDTDRSGTIEINELMMAQFPGGITLTPQTALRLMRIFDVDFNGRISFYEYMGMHKFLEICYNVFIQCDTNRSGTMEPHEIIPALRILGFFVNQRTAIVLHRLFAHGSTICDLNCWIALCAFAAQTRTAYQLITMNPYYGIIQPFNPIEFGKFLDIITSLLE",binds
4,"Zinc-finger protein (protein, UniProt C4LYX5 1-395) MTYSRCGIVALTERKSRFLEIQTDRTSYLLGDVVLVTINAKMDHMPRYESVVLLVSCVGTISRTFTDVKMPPNPKVLSKTYFEMKNEFMNQNFPLSYSFSLPGTSPFTGEESSFVLSNSITSQIFKINAMHSYRIDLFVKQEGKIYLAEQKDIVVRRTFQQIQPSPSWNFEIDNFKIKIVLDKPSYYPQENGFLLFEVNSKVQRSTSIPKISFNQTLIFNFDDQQIVVKKQIIPQMSLPAFQPYYYGKRPLLFKIPEGLPPSHSTPLFKVEYSFDINIDLFYEGGTQTPLKVILKSTILAPPNLCGACVFMPLITNDFNPPSESILRPFWQEDKSTDTCGICGASFGLITRRHHCRRCGKVFCGSCCVDSVLMKDLGFDRPERVCKSCFKLIQSN",binds
5,"Dipeptidyl peptidase III (enzyme, UniProt C4LUC2 1-645) MSLSVKTPLKFLDCTHAWEQLTPEEQVYIHHLNKANWASFPISIKQCSVEAYDIFVAFLKMYKNISHVELLKKSEVSDSAKEQYEDYVSTFFANGGNYLSFGDKKFIPECSKEEFTTIINASGHNYFESLIDIIYDVTPCLIHFGIPPEGCTAYYSSNITKEDIEHCNALLQKKGMLLENTRIDKINNKLVIGIASIEEREEEYEDVILKYGWCHSELEMLVNELKECEKLELVQKDKNKKEMFKNYIQTFTNNYNLHKEAQRWWVRDQKPSVEFNVGFIETYEDPIGVRGEWEMFVAVVDKEKTKELTELVQRANEILPSLPWGKVFEKDVFESPDFTSIDIVGFGTSGLPIGINLPNYDDVRMEQFKNVSLSNVMACGSSQDNIPFISLEQQTLYKTCSPRALETQVALHELLGHGSGKYLRCDNGKKNFPENLTNPLTGEKVKYYQDKMTYDTVFKSLGSAMEECRAEAVGLFLTYNPIVKEILNLSEDVQYINWLSEMRSGLTGLKFYNPETKSWGQAHCQARFALFKAVEKSGAVEVVGENIVLHRELIPKGIEALKELLLKIQVCRATADTEYAHSFFIPLSTPNEDELKFREIVINKKIPRSGFIQCNTKMVDGKVSLITYKSDIEGMIQSFLDRYSF",binds
6,"EhVps23 (protein, UniProt C4LUR9 1-283) MNLSKIDLTLSTVKPYYLYYLRVRVEITSVMQYYKFSATVRTYADGIILASLVGTIPIVYRGSQFCLPLCIMYPYDYPLSPPLFFTDPTPEMEVVPGHPYAMPNIVICHPILDRWSENVNTLSVLQVFVKDFSYMPPLRMKTSVIPSYSCYFPEWSSYYSYPQNYNQPIPLNHSHQLPSISSIYATESNPSIPPPQSQQLPSFQNTMDTLFTIDGFAPFKTKENECSQSPSHKKLFTKSSGPMITDLKAFVLGKQQHMKRSLPTISQTKKYKTRTTLTPLNTK",binds
7,"EhVps36 (protein, UniProt C4LTE5 1-235) MSNQPQYGIKSYIEAKEKDQNDIDNLFSNAFESLDTVIQYWDQLDKVATKFLKESNMEKENHEYQSLITYLDITEPVTKKLFGNNYEEALMDEIDEFCYLYFQKKKEMAIMLSDLYAIYNRARGILISPKELRNVCELLNDKGKYVGLMNVNKSLIIHERDFTLEKFQNTILDALKSRQKISSFTIAQHYGIQYAIVQTLMDQLEQNELICRDESEEGIMYYENLFNTQYLQYIK",binds
8,"EhVps22, ELL complex EAP30 subunit (protein, UniProt C4LXI0 1-237) MSKRTIDLLCRQKEAMSTKGKEFCLVNQKERERQINLFKLKLEEFLQNNRYEITNDVNIQNMLYILCRKMGVEPLTTEKSYFNIFFGSNAFYNELTVQIIEECYKSRESNGGIIEINKLCELINKKRKSIIRQNDIFKAINQAKCLGEGLKVVTIYQQSYVISVPFELADDQQVVLTLLNKKPYFLEDELLIIGWSKERVKGTLVWLLNIGMLWVDDQFPLDGKTTRAYWTSLYNLF",binds
9,"EhVps32 (protein, UniProt C4M1A5 1-204) MSWFRRNTTKQTIAKMNEQIKTMEKKEEYDRKRMEMELEKAKECMKKGDKTGAAQHLRKKKMHEKNMNETINLRMNLESQILEMESAKVKVDTARSFAAANKEMTKINKEMDAGKIEKTMDELRENNEKSHEIGDLLGEDLQDIDQGELEDDLAELEDQVLDEQEDELAELEHDLPAPKAKVTKQKVTKKTLTQEEEDELAELM",binds
10,"EhVps2 (protein, UniProt C4LZV3 1-246) MSRLFHKKTPQEIVREQKLNISKSIREITRESKRLEREEVRLTNEIRKMARLGRTNTVKVMAADLVKTKKQIDKLQVVIAQLNSTKMKLTEMSSMVAVTEAMNGVTNAMRKVNEATKLPAMQKVMNDFEKQNAELGIKNTMVSDMVNEGYEGDDIEEETELEVDKVLTEIGLDVENGLKPVPETRQRNTRLKERRQVQMEGGVKTRNEGNEQPEDLDTPGSRVPKAFNEGEDDEDEDDIVSRIANL",binds
11,"EhVps4 (enzyme, UniProt C4LYN8 1-419) MTSLLDKGKEFSKKAMEEDEKGNSKEALEYYKKAIDCLVAHKKTEKNEKVVNIINKRVKEYVERAEYLKRMISGERVKSDDPDKEEDAENKARSNAVGNAVLKEKPNVHWEDVIGLEKAKEALQEAVILPIKFPQLFTDKRKPWTGILLFGPPGTGKSFLAKAVATEADSTFYSVSASSLLSKYLGESEKMVKELFETARKNKPSIIFVDEVDSLCSSRGDGETEASRRVKTEFLVQMNGVGNSMEGVLMLGATNIPWQLDTAIRRRFEKRIYIGLPDASARAKMIKWNLGKLPNQLTDNDFKILGEQTELFSGSDIATLCKDAIYQPVRTLQAATHFKYVTGPSPITGEIQNDLVTPCSPGDKGAMEMNWKQIEGSKLVVPPVTMMDFMKSIKNSRSSISVEDVNRHREWAEQFGQDG",binds

# Target: T1, GST-Linker recombinant protein (E. histolytica)
# Test: as above
row,Binder,binding
1,"GTP-binding protein (EHI_031410) (enzyme, UniProt C4M4L8 1-190) MWIWEWFWNLLADLGLAYKTGKMLFLGLDNAGKTTLLHLLKDGKVSQHIPTQQPTMEELVMGNIKFNTYDLGGHTPARKVWKTYCTEVDAVIYIVDCAAPERFGESKKELDSLLNDEMLQNTPFLILGNKIDIPGAVSEAQLREAMGLTHTTGKGNVTCEGIRPIEVFMSSIVNRQGYPEGFKWISQYMK",binds
2,"Rab GTPase (EHI_164900) (enzyme, UniProt C4M1Y3 1-264) MSDTKETVPTNNEEKLDIEPKKDIKEEVKPEEEHKEEEHKEEKPEEVKPEEVKPEEVKPEEVKPEEEKKNESNEQQKVKVIMVGESSVGKTCCMNRYVSNEFAEQTKATIGVGVGSKEVEVEGKHIKLQIWDTAGQERFATLTGNYFRNAMAAIIMFDVSNKESFENIPNWVEQCCKSDGKHIIFIAGNKIDLENRVVSKEEAEEKAKELKLKYFEVSAKTGDGIEDLFNELIKEIMKTPFCNEQEKEGVELDGQKKQKKGGCC",binds
3,"Small Rab7 GTPase (enzyme, UniProt A0A8U0WQ32 1-197) MTQQTFKIILVGDSFVGKTSIINRFINAEYSTDYKSTIGSDISQKEIIVDGLLYSLSIWDTAGHEKYQSVIKSFYRGSDFCLLVYDVTNEESFMHLDKWWNEYQQEDVDKAREAVVMVIGNKVDKSQERVITEEQGKSLANERGWLYKETSASENIGIEEIFKELIRSKNPLKNSVKYPQPPPIVEIQLNVHKKQCC",binds

# These are yes or no findings as the source states them, for the method shown. In cells and extracts the contact can be indirect. These calls come from enrichment with a bait or labelling near it, and not all partners need be listed. For some assays here: Where a sequence is shown, tags or fusion partners need not be part of it.
